For assay [1], the target named is T1, rice phytochrome C (phyC), native (rice, Oryza sativa L. cv. Nipponbare (endogenous in seedlings)) (UniProt Q10CQ8).
T1 sequence: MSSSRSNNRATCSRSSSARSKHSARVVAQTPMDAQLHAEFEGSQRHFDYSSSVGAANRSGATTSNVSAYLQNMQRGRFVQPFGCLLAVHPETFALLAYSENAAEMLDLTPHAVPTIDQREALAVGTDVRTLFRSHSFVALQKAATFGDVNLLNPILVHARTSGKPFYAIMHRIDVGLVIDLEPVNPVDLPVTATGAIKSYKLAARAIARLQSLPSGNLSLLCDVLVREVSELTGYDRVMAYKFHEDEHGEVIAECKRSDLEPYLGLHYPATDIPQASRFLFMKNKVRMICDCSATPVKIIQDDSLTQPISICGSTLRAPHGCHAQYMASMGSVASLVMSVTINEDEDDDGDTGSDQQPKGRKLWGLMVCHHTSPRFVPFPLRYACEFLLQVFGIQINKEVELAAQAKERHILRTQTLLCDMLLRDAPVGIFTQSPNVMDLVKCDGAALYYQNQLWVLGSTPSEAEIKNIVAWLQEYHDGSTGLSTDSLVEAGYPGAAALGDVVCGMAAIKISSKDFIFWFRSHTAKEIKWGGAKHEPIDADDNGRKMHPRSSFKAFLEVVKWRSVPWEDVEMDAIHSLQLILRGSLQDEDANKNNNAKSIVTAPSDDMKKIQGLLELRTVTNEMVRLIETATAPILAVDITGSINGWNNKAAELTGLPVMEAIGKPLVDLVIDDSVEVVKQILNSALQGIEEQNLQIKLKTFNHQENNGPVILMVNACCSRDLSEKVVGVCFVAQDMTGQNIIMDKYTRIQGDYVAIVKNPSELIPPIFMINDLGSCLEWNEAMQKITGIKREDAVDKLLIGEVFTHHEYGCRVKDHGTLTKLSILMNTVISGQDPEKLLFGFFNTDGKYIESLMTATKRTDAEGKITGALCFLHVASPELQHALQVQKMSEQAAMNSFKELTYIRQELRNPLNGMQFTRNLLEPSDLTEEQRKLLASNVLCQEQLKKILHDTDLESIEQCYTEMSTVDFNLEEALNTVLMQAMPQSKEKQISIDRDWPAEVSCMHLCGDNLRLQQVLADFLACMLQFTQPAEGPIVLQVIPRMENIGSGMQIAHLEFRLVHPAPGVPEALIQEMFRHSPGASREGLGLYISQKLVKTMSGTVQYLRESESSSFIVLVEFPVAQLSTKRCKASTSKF
The assay is described as follows: co-IP; individual SEC fractions (#17-#26, Superdex 200) of protein extract from 7-day-old etiolated WT seedlings, immunoprecipitated with anti-PHYC antibody; phyB and phyC detected by immunoblotting.

In assay [2] the target is T1, rice phytochrome C (phyC), native (rice, Oryza sativa L. cv. Nipponbare (endogenous in seedlings)). The assay is described as follows: SEC; protein extracts (1 mg total soluble protein) of etiolated seedlings of WT and phytochrome single and double mutants on Superdex 200 HR 10/30; 50 mM Na-phosphate pH 7.0, 150 mM NaCl, 4 C; fractions immunoblotted with anti-PHYA, anti-PHYB, anti-PHYC; column calibrated with molecular weight standards.

Assay [3] deals with T2, phyC-GFP fusion protein (rice PHYC-GFP) (rice) (UniProt Q10CQ8).
T2 sequence: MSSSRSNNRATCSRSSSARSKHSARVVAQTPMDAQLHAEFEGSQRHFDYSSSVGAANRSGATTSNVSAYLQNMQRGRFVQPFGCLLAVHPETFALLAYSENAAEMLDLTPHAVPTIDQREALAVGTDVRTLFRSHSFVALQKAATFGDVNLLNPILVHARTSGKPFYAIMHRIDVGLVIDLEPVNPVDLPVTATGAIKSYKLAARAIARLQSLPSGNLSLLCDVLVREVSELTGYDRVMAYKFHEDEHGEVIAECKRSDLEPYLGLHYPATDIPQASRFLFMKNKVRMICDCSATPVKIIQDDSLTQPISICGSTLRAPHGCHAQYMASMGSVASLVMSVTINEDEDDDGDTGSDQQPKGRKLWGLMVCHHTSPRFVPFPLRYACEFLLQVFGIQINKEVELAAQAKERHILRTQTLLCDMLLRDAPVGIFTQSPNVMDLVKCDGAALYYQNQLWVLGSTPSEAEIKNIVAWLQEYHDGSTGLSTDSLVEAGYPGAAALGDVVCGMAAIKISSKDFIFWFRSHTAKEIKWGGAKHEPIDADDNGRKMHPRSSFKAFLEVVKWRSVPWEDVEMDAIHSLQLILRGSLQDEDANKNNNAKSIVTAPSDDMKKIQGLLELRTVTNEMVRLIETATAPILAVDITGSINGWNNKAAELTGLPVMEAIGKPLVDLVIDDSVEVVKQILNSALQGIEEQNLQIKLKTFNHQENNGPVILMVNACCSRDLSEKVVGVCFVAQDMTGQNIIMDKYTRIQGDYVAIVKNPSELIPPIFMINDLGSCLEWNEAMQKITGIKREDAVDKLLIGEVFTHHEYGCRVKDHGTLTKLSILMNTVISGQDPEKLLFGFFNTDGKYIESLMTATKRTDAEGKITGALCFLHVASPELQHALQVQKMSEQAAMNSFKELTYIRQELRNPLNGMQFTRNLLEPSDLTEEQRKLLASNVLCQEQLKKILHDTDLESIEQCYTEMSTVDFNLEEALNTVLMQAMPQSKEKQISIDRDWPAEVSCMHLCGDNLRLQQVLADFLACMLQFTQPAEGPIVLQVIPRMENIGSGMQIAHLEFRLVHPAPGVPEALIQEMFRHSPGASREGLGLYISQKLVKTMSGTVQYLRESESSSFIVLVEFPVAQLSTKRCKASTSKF
The assay is described as follows: co-IP; protein extracts of rice seedlings (200 ug from dark-grown, 500 ug from continuous white-light-grown), precleared, incubated 3-4 h at 4 C with anti-PHYC antibody on protein A-Sepharose; washed six times with NETN buffer containing 900 mM NaCl and twice with NETN; immunoblot with anti-PHYB and anti-PHYC.

The target of assay [4] is T1, rice phytochrome C (phyC), native (rice, Oryza sativa L. cv. Nipponbare (endogenous in seedlings)). Described as above.

These are yes or no findings as the source states them, for the method shown. For part of these data: Binding seen in cells or lysates may run through a third protein. Some results given as binding are weak or reduced against the parent protein; the word gives no strength. For part of these data: Tags and fused reporters may be left off the sequences shown.

B1: rice phytochrome B (phyB), native (natural protein, UniProt Q10MG9 1-1171, looked up)
chain: MASGSRATPTRSPSSARPAAPRHQHHHSQSSGGSTSRAGGGGGGGGGGGGGAAAAESVSKAVAQYTLDARLHAVFEQSGASGRSFDYTQSLRASPTPSSEQQIAAYLSRIQRGGHIQPFGCTLAVADDSSFRLLAYSENTADLLDLSPHHSVPSLDSSAVPPPVSLGADARLLFAPSSAVLLERAFAAREISLLNPLWIHSRVSSKPFYAILHRIDVGVVIDLEPARTEDPALSIAGAVQSQKLAVRAISRLQALPGGDVKLLCDTVVEYVRELTGYDRVMVYRFHEDEHGEVVAESRRNNLEPYIGLHYPATDIPQASRFLFRQNRVRMIADCHAAPVRVIQDPALTQPLCLVGSTLRSPHGCHAQYMANMGSIASLVMAVIISSGGDDDHNISRGSIPSAMKLWGLVVCHHTSPRCIPFPLRYACEFLMQAFGLQLNMELQLAHQLSEKHILRTQTLLCDMLLRDSPTGIVTQSPSIMDLVKCDGAALYYHGKYYPLGVTPTEVQIKDIIEWLTMCHGDSTGLSTDSLADAGYPGAAALGDAVSGMAVAYITPSDYLFWFRSHTAKEIKWGGAKHHPEDKDDGQRMHPRSSFKAFLEVVKSRSLPWENAEMDAIHSLQLILRDSFRDSAEGTSNSKAIVNGQVQLGELELRGIDELSSVAREMVRLIETATVPIFAVDTDGCINGWNAKVAELTGLSVEEAMGKSLVNDLIFKESEETVNKLLSRALRGDEDKNVEIKLKTFGPEQSKGPIFVIVNACSSRDYTKNIVGVCFVGQDVTGQKVVMDKFINIQGDYKAIVHNPNPLIPPIFASDENTCCSEWNTAMEKLTGWSRGEVVGKLLVGEVFGNCCRLKGPDALTKFMIVLHNAIGGQDCEKFPFSFFDKNGKYVQALLTANTRSRMDGEAIGAFCFLQIASPELQQAFEIQRHHEKKCYARMKELAYIYQEIKNPLNGIRFTNSLLEMTDLKDDQRQFLETSTACEKQMSKIVKDASLQSIEDGSLVLEKGEFSLGSVMNAVVSQVMIQLRERDLQLIRDIPDEIKEASAYGDQYRIQQVLCDFLLSMVRFAPAENGWVEIQVRPNIKQNSDGTDTMLFLFRFACPGEGLPPEIVQDMFSNSRWTTQEGIGLSICRKILKLMGGEVQYIRESERSFFHIVLELPQPQQAASRGTS
notes: phytochrome B of rice (Oryza sativa L. cv. Nipponbare), native protein in seedling extracts; Native photoreceptor; source: endogenous, soluble protein extract of rice seedlings (etiolated or white-light-grown)
As for B1, the binding entry in assay [1], in assay [2], in assay [3] and in assay [4] was “binds” throughout.

B2: rice PHYB expressed from full-length cDNA in transgenic lines (protein, UniProt Q10MG9 1-1171)
chain: MASGSRATPTRSPSSARPAAPRHQHHHSQSSGGSTSRAGGGGGGGGGGGGGAAAAESVSKAVAQYTLDARLHAVFEQSGASGRSFDYTQSLRASPTPSSEQQIAAYLSRIQRGGHIQPFGCTLAVADDSSFRLLAYSENTADLLDLSPHHSVPSLDSSAVPPPVSLGADARLLFAPSSAVLLERAFAAREISLLNPLWIHSRVSSKPFYAILHRIDVGVVIDLEPARTEDPALSIAGAVQSQKLAVRAISRLQALPGGDVKLLCDTVVEYVRELTGYDRVMVYRFHEDEHGEVVAESRRNNLEPYIGLHYPATDIPQASRFLFRQNRVRMIADCHAAPVRVIQDPALTQPLCLVGSTLRSPHGCHAQYMANMGSIASLVMAVIISSGGDDDHNISRGSIPSAMKLWGLVVCHHTSPRCIPFPLRYACEFLMQAFGLQLNMELQLAHQLSEKHILRTQTLLCDMLLRDSPTGIVTQSPSIMDLVKCDGAALYYHGKYYPLGVTPTEVQIKDIIEWLTMCHGDSTGLSTDSLADAGYPGAAALGDAVSGMAVAYITPSDYLFWFRSHTAKEIKWGGAKHHPEDKDDGQRMHPRSSFKAFLEVVKSRSLPWENAEMDAIHSLQLILRDSFRDSAEGTSNSKAIVNGQVQLGELELRGIDELSSVAREMVRLIETATVPIFAVDTDGCINGWNAKVAELTGLSVEEAMGKSLVNDLIFKESEETVNKLLSRALRGDEDKNVEIKLKTFGPEQSKGPIFVIVNACSSRDYTKNIVGVCFVGQDVTGQKVVMDKFINIQGDYKAIVHNPNPLIPPIFASDENTCCSEWNTAMEKLTGWSRGEVVGKLLVGEVFGNCCRLKGPDALTKFMIVLHNAIGGQDCEKFPFSFFDKNGKYVQALLTANTRSRMDGEAIGAFCFLQIASPELQQAFEIQRHHEKKCYARMKELAYIYQEIKNPLNGIRFTNSLLEMTDLKDDQRQFLETSTACEKQMSKIVKDASLQSIEDGSLVLEKGEFSLGSVMNAVVSQVMIQLRERDLQLIRDIPDEIKEASAYGDQYRIQQVLCDFLLSMVRFAPAENGWVEIQVRPNIKQNSDGTDTMLFLFRFACPGEGLPPEIVQDMFSNSRWTTQEGIGLSICRKILKLMGGEVQYIRESERSFFHIVLELPQPQQAASRGTS
Regarding B2, the binding entry in assay [4] is reported as “binds”.

B3: PHYB(C364A), chromophore-less rice phyB (protein, UniProt Q10MG9 1-1171)
chain: MASGSRATPTRSPSSARPAAPRHQHHHSQSSGGSTSRAGGGGGGGGGGGGGAAAAESVSKAVAQYTLDARLHAVFEQSGASGRSFDYTQSLRASPTPSSEQQIAAYLSRIQRGGHIQPFGCTLAVADDSSFRLLAYSENTADLLDLSPHHSVPSLDSSAVPPPVSLGADARLLFAPSSAVLLERAFAAREISLLNPLWIHSRVSSKPFYAILHRIDVGVVIDLEPARTEDPALSIAGAVQSQKLAVRAISRLQALPGGDVKLLCDTVVEYVRELTGYDRVMVYRFHEDEHGEVVAESRRNNLEPYIGLHYPATDIPQASRFLFRQNRVRMIADCHAAPVRVIQDPALTQPLCLVGSTLRSPHGAHAQYMANMGSIASLVMAVIISSGGDDDHNISRGSIPSAMKLWGLVVCHHTSPRCIPFPLRYACEFLMQAFGLQLNMELQLAHQLSEKHILRTQTLLCDMLLRDSPTGIVTQSPSIMDLVKCDGAALYYHGKYYPLGVTPTEVQIKDIIEWLTMCHGDSTGLSTDSLADAGYPGAAALGDAVSGMAVAYITPSDYLFWFRSHTAKEIKWGGAKHHPEDKDDGQRMHPRSSFKAFLEVVKSRSLPWENAEMDAIHSLQLILRDSFRDSAEGTSNSKAIVNGQVQLGELELRGIDELSSVAREMVRLIETATVPIFAVDTDGCINGWNAKVAELTGLSVEEAMGKSLVNDLIFKESEETVNKLLSRALRGDEDKNVEIKLKTFGPEQSKGPIFVIVNACSSRDYTKNIVGVCFVGQDVTGQKVVMDKFINIQGDYKAIVHNPNPLIPPIFASDENTCCSEWNTAMEKLTGWSRGEVVGKLLVGEVFGNCCRLKGPDALTKFMIVLHNAIGGQDCEKFPFSFFDKNGKYVQALLTANTRSRMDGEAIGAFCFLQIASPELQQAFEIQRHHEKKCYARMKELAYIYQEIKNPLNGIRFTNSLLEMTDLKDDQRQFLETSTACEKQMSKIVKDASLQSIEDGSLVLEKGEFSLGSVMNAVVSQVMIQLRERDLQLIRDIPDEIKEASAYGDQYRIQQVLCDFLLSMVRFAPAENGWVEIQVRPNIKQNSDGTDTMLFLFRFACPGEGLPPEIVQDMFSNSRWTTQEGIGLSICRKILKLMGGEVQYIRESERSFFHIVLELPQPQQAASRGTS
Consider B3, for which the binding result in assay [4] is reported as “binds”.

For the origin of these results see publication PMC4031084, “The Phytochrome B/Phytochrome C Heterodimer Is Necessary for Phytochrome C-Mediated Responses in Rice Seedlings” (PLoS ONE, 2014).
